# Some of the results follow. Repeats in this data set agree poorly, so a single value says little.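 U2OS cells expressing ACE2 were combined with U2OS cells expressing full-length spike, and imaging quantified fusion as the fraction of nuclei displaying both cell types' fluorescent markers. Non-toxic compounds with a fusion z-score under -3, i.e., over three standard deviations below the plate's DMSO wells, are called inhibitory hits.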
# System: U2OS ACE2 x SARS-CoV-2 spike co-culture
# Experiment: cell-cell fusion (fraction fused) z-score vs plate DMSO control; higher = more fusion
# Conditions: 30 µM; 5 h; toxicity class: non-toxic, passed QC
row,SMILES,cell-cell fusion (z-score)
1,CN(C)CCN(Cc1ccc(Cl)cc1)c1ccccn1.Cl,inactive: 2.55
2,Cl.O=C(c1ccc(OCCN2CCCCC2)cc1)c1c(-c2ccc(O)cc2)sc2cc(O)ccc12 [Evista (Raloxifene Hydrochloride)],inactive: 3.17
3,C=CCn1c(=O)c2cnc(Nc3ccc(N4CCN(C)CC4)cc3)nc2n1-c1cccc(C(C)(C)O)n1,inactive: 1.89
4,CC(=O)Nc1ccc(O)cc1,inactive: 0.876
5,"C[C@]12CC[C@@H](O)C[C@H]1CCc1ccccc12 [3alpha-HYDROXY-4,4-BISNOR-8,11,13-PODOCARPATRIENE]",inactive: 2.58
6,COc1ccccc1N1CCN(CCCNc2cc(=O)n(C)c(=O)n2C)CC1.Cl,inactive: 2.01
7,C[C@]12CCC3c4ccc(O)cc4CCC3C1CCC2=O (stereo partly specified),inactive: 0.444
8,O=c1[nH]cnc2c1ncn2[C@@H]1O[C@H](CO)[C@@H](O)[C@H]1O [Inosine],inactive: 3.42
9,O=c1c(O)c(-c2ccccc2)oc2cc(O)ccc12,inactive: 1.04
10,COc1ccc2c(c1)O[C@@H]1COc3cc(OC)c(OC)cc3[C@@H]1C2=O,inactive: 2.65
11,CC(C)OC(=O)[C@H](C)N[P@](=O)(OC[C@H]1O[C@@H](n2ccc(=O)[nH]c2=O)[C@](C)(F)[C@@H]1O)Oc1ccccc1 [Sofosbuvir],inactive: 2.44
12,CCCCC[C@H](O)/C=C/[C@@H]1[C@@H](C/C=C\CCCC(=O)O)[C@@H](O)C[C@H]1O.NC(CO)(CO)CO [Dinoprost Tromethamine],inactive: 0.927
13,COc1c(-c2ccc3cc(NS(C)(=O)=O)ccc3c2)cc(-n2ccc(=O)[nH]c2=O)cc1C(C)(C)C [Dasabuvir],inactive: -1.38
14,O=C(O)CN(CCOCCOCCN(CC(=O)O)CC(=O)O)CC(=O)O,inactive: 3.64
15,Cl.c1ccc([C@H]2CN3CCSC3=N2)cc1,inactive: 2.13
16,Cl.c1ccc([C@H]2CN3CCSC3=N2)cc1 [(-)-Tetramisole hydrochloride],inactive: 3.17
17,COC(=O)c1c(C)cc(O)cc1O,inactive: 1.91
18,NC(=O)c1cc[n+](CC2=C(C(=O)[O-])N3C(=O)[C@@H](NC(=O)[C@@H](c4ccccc4)S(=O)(=O)[O-])[C@H]3SC2)cc1.[Na+] [Cefsulodin sodium salt hydrate],inactive: 0.605
19,CN1CCc2c(c3ccccc3n2Cc2ccccc2)C1,inactive: -0.252
20,Clc1ccc(CO/N=C(\Cn2ccnc2)c2ccc(Cl)cc2Cl)c(Cl)c1.O=[N+]([O-])O [Oxiconazole nitrate],active: -7.37
21,CC(C)(/N=N/C(C)(C)C(=N)N)C(=N)N.Cl.Cl,inactive: 1.5
22,O=c1cc(O)cc(/C=C/c2ccc(O)c(O)c2)o1 [Hispidin],inactive: 4.29
23,CCN1CCN(c2cc3c(cc2F)c(=O)c(C(=O)O)cn3C2CC2)CC1,inactive: 4.35
24,CCC(CCC(C)[C@H]1CCC2C3CC=C4C[C@@H](OC(C)=O)CC[C@]4(C)C3CC[C@@]21C)C(C)C (stereo partly specified),inactive: 2.44

# 2 entries drawn at random from those above, as already listed:
row,SMILES,cell-cell fusion (z-score)
22,O=c1cc(O)cc(/C=C/c2ccc(O)c(O)c2)o1 [Hispidin],inactive: 4.29
16,Cl.c1ccc([C@H]2CN3CCSC3=N2)cc1 [(-)-Tetramisole hydrochloride],inactive: 3.17

# Next part:

row,SMILES,cell-cell fusion (z-score)
1,C[N+](C)([O-])CCNc1ccc(NCC[N+](C)(C)[O-])c2c1C(=O)c1c(O)ccc(O)c1C2=O.Cl.Cl [Banoxantrone dihydrochloride],inactive: 2.23
2,CCCc1nc2c(C)cc(-c3nc4ccccc4n3C)cc2n1Cc1ccc(-c2ccccc2C(=O)O)cc1,inactive: 4.13
3,Nc1cc(C(F)(F)F)c(-c2cc(N3CCOCC3)nc(N3CCOCC3)n2)cn1,inactive: 1.76
4,CCCCOC(=O)c1ccc(N)cc1,inactive: 0.527
5,CCCN1CCC[C@@H]2Cc3nc(N)ncc3C[C@H]21.Cl.Cl [Quinelorane dihydrochloride],inactive: 0.0655
6,COc1ccc2c(c1OC)C(=O)O[C@@H]2[C@H]1c2cc3c(cc2CCN1C)OCO3,inactive: 3.14
7,CC1=Nc2ccc(Cl)cc2S(=O)(=O)N1,inactive: 6.05
8,CC(C)NC[C@H](O)COc1cccc2ccccc12.Cl [(S)-Propranolol hydrochloride],inactive: 1.28
9,Cc1c(NC(C)C)c(=O)n(-c2ccccc2)n1C.Cl,inactive: 1.54
10,NC(N)=Nc1nc(CSCC/C(N)=N\S(N)(=O)=O)cs1 [Famotidine],inactive: 2.86
11,CCCCNC(=O)NS(=O)(=O)c1ccc(C)cc1 [Tolbutamide],inactive: 1.64
12,CCCCNC(=O)NS(=O)(=O)c1ccc(C)cc1,inactive: 4.01
13,COc1ccc(-c2cc(=O)c3c(O)cc(OC)cc3o2)cc1,inactive: -0.214
14,CC(=O)c1ccc(S(=O)(=O)NC(=O)NC2CCCCC2)cc1 [Acetohexamide],inactive: 2.33
15,CC(=O)c1ccc(S(=O)(=O)NC(=O)NC2CCCCC2)cc1,inactive: -0.295
16,CCC[C@@H]1C[C@@H](C(=O)N[C@@H]([C@H]2O[C@H](SC)[C@H](OP(=O)(O)O)[C@@H](O)[C@H]2O)[C@H](C)Cl)N(C)C1 [Clindamycin phosphate],inactive: 3.3
17,CCCCCCCc1ccc(CCc2cccc(O)c2C(=O)O)cc1,inactive: 1.92
18,Cl.c1ccc2c(c1)CCC[C@H]2Nc1nc2ccccc2[nH]1 [NS8593 hydrochloride],inactive: -2.17
19,CN1CCN(C2=Nc3cc(Cl)ccc3Nc3ccccc32)CC1 [Clozapine],inactive: 2.09
20,CN1CCN(C2=Nc3cc(Cl)ccc3Nc3ccccc32)CC1,inactive: 2.3
21,C=C(C)[C@@H]1[C@H]2OC(=O)[C@@H]1[C@]1(O)C[C@H]3O[C@]34C(=O)O[C@H]2[C@]14C,inactive: 0.297
22,COc1ccc(-c2cc(=O)c3c(OC)c(OC)c(OC)c(OC)c3o2)cc1OC,inactive: 1.8
23,C[C@]12CCC(=O)C=C1CC[C@@H]1[C@@H]2[C@@H](O)C[C@@]2(C)[C@H]1CC[C@]2(O)C(=O)CO [Hydrocortisone],inactive: 1.67
24,O=C1N(c2ccccc2)c2ccccc2C1(Cc1ccncc1)Cc1ccncc1 [Linopirdine],inactive: 3.28

row,SMILES,cell-cell fusion (z-score)
1,CN1CC(=O)N2[C@H](c3ccc4c(c3)OCO4)c3[nH]c4ccccc4c3C[C@@H]2C1=O,inactive: 3.15
2,CN1[C@@H]2CC[C@H]1C[C@@H](OC(c1ccccc1)c1ccccc1)C2.CS(=O)(=O)O [Benztropine mesylate],inactive: 4.23
3,CCCNC(=O)NS(=O)(=O)c1ccc(Cl)cc1 [Chlorpropamide],inactive: 1.02
4,CCCNC(=O)NS(=O)(=O)c1ccc(Cl)cc1,inactive: 1.44
5,COC(=O)[C@@]1(C)CCC[C@]2(C)c3ccc(O)c(C(C)C)c3CCC12 (stereo partly specified),inactive: 2.4
6,CO/N=C(/C(=O)NC1C(=O)N2C(C(=O)[O-])=C(COC(N)=O)CSC12)c1ccco1.[Na+] (stereo unspecified),inactive: 2.63
7,Cc1nc2c(OCc3ccccc3)cccn2c1CC#N,inactive: 0.00565
8,CN(C)Cc1c(C(=O)NCCOc2ccc(C(=O)NO)cc2)oc2ccccc12,inactive: 2.15
9,Nc1ncnc2c1ncn2[C@@H]1O[C@H](CO)[C@@H](O)[C@@H]1O,inactive: 1.4
10,N[C@@H](Cc1ccc(N(CCCl)CCCl)cc1)C(=O)O,inactive: 0.471
11,COC(=O)N[C@H](C(=O)N1CCC[C@H]1c1ncc(-c2ccc3c(c2)O[C@@H](c2ccccc2)n2c-3cc3cc(-c4cnc([C@@H]5CCCN5C(=O)[C@@H](NC(=O)OC)C(C)C)[nH]4)ccc32)[nH]1)C(C)C [Elbasvir],inactive: 2.2
12,c1ccc(-c2nn3c(c2-c2ccnc4cc(OCCN5CCOCC5)ccc24)CCC3)nc1,inactive: 0.447
13,O=C(C1CCCCC1)N1CC(=O)N2CCc3ccccc3C2C1 (stereo unspecified),inactive: 0.62
14,CC(COc1ccccc1)N(CCCl)Cc1ccccc1.Cl (stereo unspecified) [Phenoxybenzamine hydrochloride],inactive: -0.506
15,C[C@@H]1O[C@@H]1P(=O)(O)O.NC(CO)(CO)CO [Fosfomycin Tromethamine],inactive: 3.04
16,O=C([O-])CS.[Na+],inactive: 2.29
17,COC(=O)C[C@H]1C2(C)CC34OC5(C)O[C@@]6([C@H](OC(C)=O)C(OC(C)=O)[C@]7(C)C(/C(=C(/O)C(C)C)C(=O)O[C@H]7c7ccoc7)[C@@]6(O5)[C@H](OC(C)=O)[C@@]3(O)C2OC(=O)C(C)C)[C@]14C (stereo partly specified),inactive: 3.04
18,COc1ccc(CC2c3cc(OC)c(OC)cc3CC[N+]2(C)CCC(=O)OCCCCCOC(=O)CC[N+]2(C)CCc3cc(OC)c(OC)cc3C2Cc2ccc(OC)c(OC)c2)cc1OC.O=S(=O)([O-])c1ccccc1.O=S(=O)([O-])c1ccccc1 (stereo unspecified),inactive: 1.03
19,CCC1(C)CC(=O)NC1=O (stereo unspecified) [Ethosuximide],inactive: 2.6
20,CCC1(C)CC(=O)NC1=O (stereo unspecified),inactive: 1.84
21,COC1=C(CC=C(C)C)C(=O)c2ccccc2C1=O,active: -3.39
22,NC1CONC1=O (racemic) [DL-Cycloserine],inactive: 1.91
23,C[C@@H]1C(=O)N=C2Nc3cccc(Cl)c3CN21 [Quazinone],inactive: 2.15

# Single values from the results shown.
# Value of NC1CONC1=O (racemic) [DL-Cycloserine] under cell-cell fusion (z-score): inactive: 1.91
# Value of N[C@@H](Cc1ccc(N(CCCl)CCCl)cc1)C(=O)O under cell-cell fusion (z-score): inactive: 0.471
